The source of these data is doi:10.1101/2025.03.26.645482.

Protein sequences, listed by entry. Tags and fused reporters are not part of them. Residues count along the entry.
UniProt O43189: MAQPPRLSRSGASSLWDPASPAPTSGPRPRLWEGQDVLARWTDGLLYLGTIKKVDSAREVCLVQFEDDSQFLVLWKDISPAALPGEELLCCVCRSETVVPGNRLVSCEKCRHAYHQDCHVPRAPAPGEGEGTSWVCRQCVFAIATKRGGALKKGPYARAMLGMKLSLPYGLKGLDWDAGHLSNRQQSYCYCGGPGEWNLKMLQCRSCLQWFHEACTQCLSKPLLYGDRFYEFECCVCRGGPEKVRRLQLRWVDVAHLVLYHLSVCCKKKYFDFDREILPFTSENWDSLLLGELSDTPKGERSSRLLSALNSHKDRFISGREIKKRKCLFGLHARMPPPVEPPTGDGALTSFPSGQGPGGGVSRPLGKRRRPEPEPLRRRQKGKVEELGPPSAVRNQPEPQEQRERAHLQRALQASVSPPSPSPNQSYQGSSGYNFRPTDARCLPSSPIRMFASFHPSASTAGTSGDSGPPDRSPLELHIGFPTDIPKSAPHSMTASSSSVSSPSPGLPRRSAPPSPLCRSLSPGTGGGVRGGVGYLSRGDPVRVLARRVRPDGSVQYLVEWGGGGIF
UniProt Q9Y483: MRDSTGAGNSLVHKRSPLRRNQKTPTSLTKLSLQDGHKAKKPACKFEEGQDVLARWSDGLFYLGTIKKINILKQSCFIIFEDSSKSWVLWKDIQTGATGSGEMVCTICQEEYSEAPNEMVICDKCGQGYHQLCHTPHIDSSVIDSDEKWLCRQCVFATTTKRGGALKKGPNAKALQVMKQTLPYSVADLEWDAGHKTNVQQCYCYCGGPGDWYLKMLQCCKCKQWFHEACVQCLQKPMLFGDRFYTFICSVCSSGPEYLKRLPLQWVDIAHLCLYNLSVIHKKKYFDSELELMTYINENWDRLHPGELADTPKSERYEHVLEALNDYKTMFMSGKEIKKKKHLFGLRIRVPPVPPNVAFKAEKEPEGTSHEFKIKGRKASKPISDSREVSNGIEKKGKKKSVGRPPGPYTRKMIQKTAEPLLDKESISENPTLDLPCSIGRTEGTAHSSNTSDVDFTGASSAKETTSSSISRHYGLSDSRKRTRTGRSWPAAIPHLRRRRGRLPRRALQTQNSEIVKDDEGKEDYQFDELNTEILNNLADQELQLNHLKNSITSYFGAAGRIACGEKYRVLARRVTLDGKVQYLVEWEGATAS
UniProt O75530: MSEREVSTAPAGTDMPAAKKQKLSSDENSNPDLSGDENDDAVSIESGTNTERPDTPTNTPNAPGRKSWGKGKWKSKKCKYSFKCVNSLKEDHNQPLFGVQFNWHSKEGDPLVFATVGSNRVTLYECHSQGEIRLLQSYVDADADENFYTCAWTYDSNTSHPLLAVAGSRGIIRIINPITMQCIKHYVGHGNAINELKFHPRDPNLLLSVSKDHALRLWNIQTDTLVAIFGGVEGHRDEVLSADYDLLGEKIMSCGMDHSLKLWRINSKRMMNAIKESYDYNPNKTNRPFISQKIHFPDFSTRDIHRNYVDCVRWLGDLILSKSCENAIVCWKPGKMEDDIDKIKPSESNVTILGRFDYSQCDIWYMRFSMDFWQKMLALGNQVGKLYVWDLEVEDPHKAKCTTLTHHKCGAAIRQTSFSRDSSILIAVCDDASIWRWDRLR
UniProt Q15022, residues 146-363: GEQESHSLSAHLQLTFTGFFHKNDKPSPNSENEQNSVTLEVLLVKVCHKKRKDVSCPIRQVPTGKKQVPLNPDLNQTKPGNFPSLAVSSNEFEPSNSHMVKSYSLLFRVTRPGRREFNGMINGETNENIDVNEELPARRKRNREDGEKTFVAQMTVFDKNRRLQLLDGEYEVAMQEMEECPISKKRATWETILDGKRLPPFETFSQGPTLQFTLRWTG

Results are given in words; binding and its absence hold for the method and conditions named. Some binding calls cover weakened binding; strength is not graded here.

Common to all, as to test: co-purification
The target in one assay is mEGFP-PHF1 (human) (UniProt O43189).
The target in another assay is mEGFP-MTF2 (human) (UniProt Q9Y483).
For assay [1], the target named is His6-Flag-Eed-3C-StrepII (human) (UniProt O75530).

In the case of “SUZ12(C2) domain (residues 146-363) (from UniProt Q15022 146-363) (domain or fragment)”, the binding result with mEGFP-PHF1 (human) and in the assay with mEGFP-MTF2 (human) was “binds” in each case. As for “mEGFP-PHF1-StrepII (from UniProt O43189 1-567)”, in assay [1], the binding result is listed as “binds”.
